Measurements reported in PMC8505397, “Development of peptides targeting receptor binding site of the envelope glycoprotein to contain the West Nile virus infection” (Scientific Reports, 2021).

B1: phage clone CC12 carrying 7-mer cyclic peptide … (peptide)
peptide: CTYENHRTC
modifications: disulfide bond between the two cysteine residues (cyclic form on pIII)
B2: phage clone CC7 carrying 7-mer cyclic peptide … (peptide)
peptide: CTNANHYFC
modifications: disulfide bond between the two cysteine residues (cyclic form on pIII)
B3: phage clone CC16 carrying 7-mer cyclic peptide … (peptide)
peptide: CLAQSHPLC
modifications: disulfide bond between the two cysteine residues (cyclic form on pIII)

The binders below were run against recombinant domain III (DIII) of the envelope (E) glycoprotein of West Nile virus (West Nile virus) (assay: ELISA; semi-quantitative phage ELISA of individual amplified, PEG/NaCl-purified phage clones with rDIII; negative controls with rDIII omitted; details in Supplementary Method S4; both purified).
B1 was tested, and the binding was “binds”.
For B2, the binding was “binds”.
For B3, the binding was “binds”.

These are yes or no findings as the source states them, for the method shown. Binding calls can cover weak binding; strength is not graded here.
